{"source": "the supplement of paper PMC6411743", "experiment_in_all_cases": "NP40-soluble protein abundance relative to vehicle (solubility fold change) (ratio); higher = more soluble protein in presence of AMP-PNP", "key": {"AATF": {"biological_target": "T1, AATF (UniProt Q9NY61)", "T1 sequence (whole entry)": "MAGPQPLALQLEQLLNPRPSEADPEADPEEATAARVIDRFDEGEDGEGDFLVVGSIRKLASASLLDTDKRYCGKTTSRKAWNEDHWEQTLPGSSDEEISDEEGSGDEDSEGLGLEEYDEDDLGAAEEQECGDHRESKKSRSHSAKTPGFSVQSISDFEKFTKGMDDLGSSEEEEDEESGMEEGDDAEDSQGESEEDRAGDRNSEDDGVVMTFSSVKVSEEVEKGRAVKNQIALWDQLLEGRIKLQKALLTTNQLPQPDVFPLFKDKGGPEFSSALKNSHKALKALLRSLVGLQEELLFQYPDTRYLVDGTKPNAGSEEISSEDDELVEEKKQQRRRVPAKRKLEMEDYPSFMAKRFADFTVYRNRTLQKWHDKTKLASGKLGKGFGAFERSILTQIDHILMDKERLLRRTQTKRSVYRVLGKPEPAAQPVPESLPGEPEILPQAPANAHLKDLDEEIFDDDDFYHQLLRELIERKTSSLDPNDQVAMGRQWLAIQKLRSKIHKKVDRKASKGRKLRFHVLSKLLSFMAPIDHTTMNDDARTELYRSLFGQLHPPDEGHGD", "summary_of_the_method": "(§1)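 Values are fold changes against the detergent-processed vehicle, based on vsn-normalised intensities. Jurkat crude lysate was treated at eight concentrations from 0.1 to 10 mM (10 min at room temperature, then 3 min at 37 °C), solubilised with 0.8% NP40 and benzonase, ultracentrifuged and analysed by TMT-labelled LC-MS/MS over three independent experiments.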"}, "ATXN10": {"biological_target": "T2, ATXN10 (UniProt Q9UBB4)", "T2 sequence (whole entry)": "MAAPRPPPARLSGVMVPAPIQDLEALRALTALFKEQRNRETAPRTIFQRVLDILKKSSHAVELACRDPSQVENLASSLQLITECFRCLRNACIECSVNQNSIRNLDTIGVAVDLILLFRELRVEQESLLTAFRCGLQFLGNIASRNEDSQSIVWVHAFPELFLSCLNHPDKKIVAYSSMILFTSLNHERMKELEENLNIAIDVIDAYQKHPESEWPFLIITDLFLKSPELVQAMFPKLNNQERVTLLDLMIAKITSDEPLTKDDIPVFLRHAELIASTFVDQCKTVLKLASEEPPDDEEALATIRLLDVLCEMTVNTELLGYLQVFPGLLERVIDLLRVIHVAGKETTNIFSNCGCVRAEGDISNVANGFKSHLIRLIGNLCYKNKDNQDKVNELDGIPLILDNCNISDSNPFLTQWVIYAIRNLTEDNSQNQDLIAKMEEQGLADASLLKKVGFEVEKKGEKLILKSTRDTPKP", "summary_of_the_method": "as §1"}, "FARSB": {"biological_target": "T3, FARSB (UniProt Q9NSD9)", "T3 sequence (whole entry)": "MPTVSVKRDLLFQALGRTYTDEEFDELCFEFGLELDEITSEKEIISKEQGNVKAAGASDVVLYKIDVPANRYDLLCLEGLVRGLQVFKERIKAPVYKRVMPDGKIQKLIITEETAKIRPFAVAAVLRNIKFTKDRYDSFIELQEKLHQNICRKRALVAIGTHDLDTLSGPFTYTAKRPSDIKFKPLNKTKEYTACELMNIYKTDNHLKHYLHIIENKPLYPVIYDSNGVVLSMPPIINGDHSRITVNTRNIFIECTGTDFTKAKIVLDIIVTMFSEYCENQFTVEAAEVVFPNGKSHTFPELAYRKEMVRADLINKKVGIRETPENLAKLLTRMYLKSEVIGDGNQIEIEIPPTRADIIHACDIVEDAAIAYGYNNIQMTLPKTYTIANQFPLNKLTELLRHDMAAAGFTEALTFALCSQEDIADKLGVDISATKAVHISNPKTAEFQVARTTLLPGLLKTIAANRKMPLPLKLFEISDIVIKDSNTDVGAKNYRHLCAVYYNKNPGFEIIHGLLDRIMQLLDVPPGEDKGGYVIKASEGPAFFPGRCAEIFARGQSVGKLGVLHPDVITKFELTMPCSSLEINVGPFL", "summary_of_the_method": "as §1"}, "MED17": {"biological_target": "T4, MED17 (UniProt Q9NVC6)", "T4 sequence (whole entry)": "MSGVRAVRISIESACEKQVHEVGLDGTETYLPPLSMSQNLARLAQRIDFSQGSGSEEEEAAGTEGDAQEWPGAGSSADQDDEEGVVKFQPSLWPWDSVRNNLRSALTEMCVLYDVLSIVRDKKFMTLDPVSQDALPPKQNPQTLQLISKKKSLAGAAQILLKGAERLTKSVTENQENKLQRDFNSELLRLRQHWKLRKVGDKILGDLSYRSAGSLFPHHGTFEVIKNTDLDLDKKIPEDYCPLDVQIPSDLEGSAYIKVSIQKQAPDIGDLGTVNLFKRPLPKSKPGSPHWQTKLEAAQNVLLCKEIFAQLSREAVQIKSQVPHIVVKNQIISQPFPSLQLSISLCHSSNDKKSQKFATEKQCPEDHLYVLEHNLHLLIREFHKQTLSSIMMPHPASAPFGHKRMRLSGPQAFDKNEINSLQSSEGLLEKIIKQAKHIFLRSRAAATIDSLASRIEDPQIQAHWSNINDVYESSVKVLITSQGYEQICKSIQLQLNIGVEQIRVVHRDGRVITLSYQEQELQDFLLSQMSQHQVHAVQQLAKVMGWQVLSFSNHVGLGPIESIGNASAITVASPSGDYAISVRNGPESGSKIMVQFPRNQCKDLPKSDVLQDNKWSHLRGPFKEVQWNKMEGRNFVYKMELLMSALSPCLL", "summary_of_the_method": "as §1"}, "NKIRAS1": {"biological_target": "T5, NKIRAS1 (UniProt Q9NYS0)", "T5 sequence (whole entry)": "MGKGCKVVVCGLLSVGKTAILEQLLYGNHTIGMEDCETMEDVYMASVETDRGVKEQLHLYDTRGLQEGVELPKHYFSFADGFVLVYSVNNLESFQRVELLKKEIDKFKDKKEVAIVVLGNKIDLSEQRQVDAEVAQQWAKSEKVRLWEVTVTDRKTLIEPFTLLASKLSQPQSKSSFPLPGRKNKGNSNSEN", "settings": "concentration: 1mM", "summary_of_the_method": "as §1"}}, "note": "± gives the standard deviation of the averaged measurements. The list shows a part of the results, in another mix than the full data."}
{"smiles": "Nc1ncnc2c1ncn2[C@@H]1O[C@H](COP(=O)(O)OP(=O)(O)NP(=O)(O)O)[C@@H](O)[C@H]1O", "note": "[adenylyl imidodiphosphate]", "values": [{"measurement": "NP40-soluble protein abundance", "setting": "AATF; concentration: 1mM", "result": "0.954 ± 0.071"}, {"measurement": "NP40-soluble protein abundance", "setting": "AATF; concentration: 2mM", "result": "0.985 ± 0.025"}, {"measurement": "NP40-soluble protein abundance", "setting": "AATF; concentration: 4mM", "result": "0.952 ± 0.043"}, {"measurement": "NP40-soluble protein abundance", "setting": "AATF; concentration: 6mM", "result": "0.958 ± 0.063"}, {"measurement": "NP40-soluble protein abundance", "setting": "AATF; concentration: 8mM", "result": "0.936 ± 0.049"}, {"measurement": "NP40-soluble protein abundance", "setting": "AATF; concentration: 10mM", "result": "0.991 ± 0.062"}, {"measurement": "NP40-soluble protein abundance", "setting": "ATXN10; concentration: 1mM", "result": "0.976 ± 0.018"}, {"measurement": "NP40-soluble protein abundance", "setting": "ATXN10; concentration: 2mM", "result": "0.954 ± 0.021"}, {"measurement": "NP40-soluble protein abundance", "setting": "ATXN10; concentration: 4mM", "result": "0.943 ± 0.043"}, {"measurement": "NP40-soluble protein abundance", "setting": "ATXN10; concentration: 6mM", "result": "0.954 ± 0.049"}, {"measurement": "NP40-soluble protein abundance", "setting": "ATXN10; concentration: 8mM", "result": "0.915 ± 0.058"}, {"measurement": "NP40-soluble protein abundance", "setting": "ATXN10; concentration: 10mM", "result": "0.916 ± 0.061"}, {"measurement": "NP40-soluble protein abundance", "setting": "FARSB; concentration: 1mM", "result": "0.971 ± 0.038"}, {"measurement": "NP40-soluble protein abundance", "setting": "FARSB; concentration: 2mM", "result": "0.878 ± 0.12"}, {"measurement": "NP40-soluble protein abundance", "setting": "FARSB; concentration: 4mM", "result": "0.96 ± 0.045"}, {"measurement": "NP40-soluble protein abundance", "setting": "FARSB; concentration: 6mM", "result": "0.975 ± 0.014"}, {"measurement": "NP40-soluble protein abundance", "setting": "FARSB; concentration: 8mM", "result": "0.99 ± 0.041"}, {"measurement": "NP40-soluble protein abundance", "setting": "FARSB; concentration: 10mM", "result": "0.955 ± 0.051"}, {"measurement": "NP40-soluble protein abundance", "setting": "MED17; concentration: 1mM", "result": "0.947 ± 0.024"}, {"measurement": "NP40-soluble protein abundance", "setting": "MED17; concentration: 2mM", "result": "0.914 ± 0.031"}, {"measurement": "NP40-soluble protein abundance", "setting": "MED17; concentration: 4mM", "result": "0.968 ± 0.056"}, {"measurement": "NP40-soluble protein abundance", "setting": "MED17; concentration: 6mM", "result": "0.99 ± 0.046"}, {"measurement": "NP40-soluble protein abundance", "setting": "MED17; concentration: 8mM", "result": "0.985 ± 0.06"}, {"measurement": "NP40-soluble protein abundance", "setting": "MED17; concentration: 10mM", "result": "1 ± 0.12"}, {"measurement": "NP40-soluble protein abundance", "setting": "NKIRAS1", "result": "1 ± 0.033"}]}
